Publication PMC11040345
No constants are given. Whether binding was seen depends on the method and setting. Binding seen in cells or lysates may run through a third protein. A yes stands for co-enrichment or nearness to the bait. Other partners may have been found.

Chains of the proteins cited; added tags and fusions are not shown.
UniProt P19338: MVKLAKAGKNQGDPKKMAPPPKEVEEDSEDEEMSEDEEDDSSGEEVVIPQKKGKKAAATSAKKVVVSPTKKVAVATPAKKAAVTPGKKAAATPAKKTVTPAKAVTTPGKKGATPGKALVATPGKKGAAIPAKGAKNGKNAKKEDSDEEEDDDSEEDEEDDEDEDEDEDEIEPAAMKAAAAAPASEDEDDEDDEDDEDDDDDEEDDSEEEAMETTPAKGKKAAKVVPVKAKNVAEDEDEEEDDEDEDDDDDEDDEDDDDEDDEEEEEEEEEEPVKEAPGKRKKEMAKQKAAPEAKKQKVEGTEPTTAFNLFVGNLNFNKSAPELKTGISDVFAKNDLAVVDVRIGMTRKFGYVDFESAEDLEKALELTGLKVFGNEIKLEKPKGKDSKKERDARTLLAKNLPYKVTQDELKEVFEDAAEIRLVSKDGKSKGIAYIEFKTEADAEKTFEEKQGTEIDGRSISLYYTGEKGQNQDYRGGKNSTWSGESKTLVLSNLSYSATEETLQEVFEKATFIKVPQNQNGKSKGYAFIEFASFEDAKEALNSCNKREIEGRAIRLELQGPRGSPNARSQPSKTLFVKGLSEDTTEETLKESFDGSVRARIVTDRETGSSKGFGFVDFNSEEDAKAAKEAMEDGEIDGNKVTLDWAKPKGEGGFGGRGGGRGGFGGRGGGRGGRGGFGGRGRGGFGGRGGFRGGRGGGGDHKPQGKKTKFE
UniProt P19474: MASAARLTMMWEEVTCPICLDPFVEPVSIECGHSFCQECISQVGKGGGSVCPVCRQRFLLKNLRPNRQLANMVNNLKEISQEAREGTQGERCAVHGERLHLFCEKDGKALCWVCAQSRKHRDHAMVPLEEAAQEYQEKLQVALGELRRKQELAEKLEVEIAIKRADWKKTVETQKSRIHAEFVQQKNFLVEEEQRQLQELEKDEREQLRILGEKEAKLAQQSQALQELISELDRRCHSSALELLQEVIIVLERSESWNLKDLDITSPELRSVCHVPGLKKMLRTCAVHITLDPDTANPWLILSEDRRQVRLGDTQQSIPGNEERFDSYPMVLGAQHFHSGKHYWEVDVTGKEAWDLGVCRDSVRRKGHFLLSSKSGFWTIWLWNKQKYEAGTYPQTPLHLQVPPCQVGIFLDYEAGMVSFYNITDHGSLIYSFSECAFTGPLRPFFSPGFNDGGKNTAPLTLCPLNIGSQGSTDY

Molecular target: nucleolin (NCL) (human (endogenous in HCCLM3)) (UniProt P19338)
Assay: affinity purification with mass spectrometry; co-IP with the NCL antibody, silver staining of the obtained protein samples, then MS analysis; cells not stated in the text shown

tripartite motif-containing 21 (TRIM21) (from UniProt P19474 1-475)
binding: binds
